Data from patent US20260193623.
The exact form of at least one protein or probe is not confirmed. Tags and fusion partners may be left off the protein sequences shown.

Columns and labels:
Experiment in all cases: activity assay
[1] = test system: T1, MG153-31; details: primer extension gel; 3 mM MgCl2, 37 C; protein translated in vitro; protein details: N-terminal Strep; label: 5'-FAM primer; DNA:RNA hybrid
T1 sequence (limits assumed): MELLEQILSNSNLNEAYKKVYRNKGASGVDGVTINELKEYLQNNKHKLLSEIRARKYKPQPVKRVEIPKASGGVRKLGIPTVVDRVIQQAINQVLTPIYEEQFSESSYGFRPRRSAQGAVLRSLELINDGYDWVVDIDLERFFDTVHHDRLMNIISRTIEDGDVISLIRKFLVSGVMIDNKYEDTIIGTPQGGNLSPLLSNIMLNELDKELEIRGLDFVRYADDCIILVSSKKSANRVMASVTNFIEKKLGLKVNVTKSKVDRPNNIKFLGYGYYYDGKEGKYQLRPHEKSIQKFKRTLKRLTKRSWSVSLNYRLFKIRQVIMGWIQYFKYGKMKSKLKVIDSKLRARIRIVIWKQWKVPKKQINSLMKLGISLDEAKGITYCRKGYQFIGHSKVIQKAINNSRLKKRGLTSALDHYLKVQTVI

[2] = test system: T2, MG160-1; details: primer extension gel and qPCR; protein translated in vitro; protein details: N-terminal Strep; label: 5'-FAM primer; DNA:RNA hybrid
T2 sequence (limits assumed): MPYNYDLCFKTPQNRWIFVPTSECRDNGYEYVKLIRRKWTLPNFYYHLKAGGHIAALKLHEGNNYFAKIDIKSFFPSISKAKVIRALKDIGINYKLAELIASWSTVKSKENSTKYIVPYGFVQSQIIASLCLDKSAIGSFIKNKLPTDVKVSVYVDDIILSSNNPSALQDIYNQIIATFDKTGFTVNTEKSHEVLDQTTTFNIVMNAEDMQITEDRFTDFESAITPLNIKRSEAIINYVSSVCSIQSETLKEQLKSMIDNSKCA

[3] = test system: T3, MG153-4; details: primer extension gel; 3 mM MgCl2, 37 C; protein translated in vitro; protein details: N-terminal Strep; label: 5'-FAM primer; DNA:RNA hybrid
T3 sequence (limits assumed): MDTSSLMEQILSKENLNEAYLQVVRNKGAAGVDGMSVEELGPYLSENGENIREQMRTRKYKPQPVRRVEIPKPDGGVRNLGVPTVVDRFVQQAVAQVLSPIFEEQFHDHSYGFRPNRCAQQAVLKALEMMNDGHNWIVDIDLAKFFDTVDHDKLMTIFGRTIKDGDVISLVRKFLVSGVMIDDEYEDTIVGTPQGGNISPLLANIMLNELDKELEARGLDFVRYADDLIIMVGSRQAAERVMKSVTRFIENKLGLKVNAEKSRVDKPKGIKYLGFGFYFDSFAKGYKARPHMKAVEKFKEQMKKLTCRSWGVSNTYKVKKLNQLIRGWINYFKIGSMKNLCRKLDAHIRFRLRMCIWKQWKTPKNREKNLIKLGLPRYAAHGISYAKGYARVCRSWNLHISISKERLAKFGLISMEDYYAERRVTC

[4] = test system: T4, MG165-5; details: primer extension gel; protein translated in vitro; protein details: N-terminal Strep; label: 5'-FAM primer; DNA:RNA hybrid
T4 sequence (limits assumed): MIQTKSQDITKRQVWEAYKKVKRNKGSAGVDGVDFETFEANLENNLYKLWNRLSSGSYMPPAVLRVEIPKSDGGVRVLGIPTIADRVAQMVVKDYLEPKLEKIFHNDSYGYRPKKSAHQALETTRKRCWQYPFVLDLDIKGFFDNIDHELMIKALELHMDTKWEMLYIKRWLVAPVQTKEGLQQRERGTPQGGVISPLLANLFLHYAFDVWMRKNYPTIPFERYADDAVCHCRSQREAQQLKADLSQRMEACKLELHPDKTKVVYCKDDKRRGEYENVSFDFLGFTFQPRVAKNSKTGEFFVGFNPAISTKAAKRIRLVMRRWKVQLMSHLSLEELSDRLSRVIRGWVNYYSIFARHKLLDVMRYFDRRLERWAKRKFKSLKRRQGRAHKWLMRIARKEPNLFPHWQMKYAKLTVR

[5] = test system: T5, MG153-41; details: primer extension gel; 3 mM MgCl2, 37 C; protein translated in vitro; protein details: N-terminal Strep; label: 5'-FAM primer; DNA:RNA hybrid
T5 sequence (limits assumed): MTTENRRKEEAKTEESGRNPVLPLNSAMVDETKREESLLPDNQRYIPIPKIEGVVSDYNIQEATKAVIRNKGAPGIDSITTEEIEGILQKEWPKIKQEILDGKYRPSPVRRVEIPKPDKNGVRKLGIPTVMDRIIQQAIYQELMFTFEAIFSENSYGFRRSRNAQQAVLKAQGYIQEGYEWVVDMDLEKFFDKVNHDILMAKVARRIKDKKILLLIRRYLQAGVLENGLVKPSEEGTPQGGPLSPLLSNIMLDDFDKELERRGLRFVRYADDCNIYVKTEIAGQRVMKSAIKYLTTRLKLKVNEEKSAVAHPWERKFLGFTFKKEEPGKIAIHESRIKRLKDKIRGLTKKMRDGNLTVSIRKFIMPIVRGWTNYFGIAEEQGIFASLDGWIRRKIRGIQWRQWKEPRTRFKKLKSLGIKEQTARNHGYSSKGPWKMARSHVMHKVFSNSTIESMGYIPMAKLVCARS

[6] = test system: T6, MG153-3; details: primer extension gel; 3 mM MgCl2, 37 C; protein translated in vitro; protein details: N-terminal Strep; label: 5'-FAM primer; DNA:RNA hybrid
T6 sequence (limits assumed): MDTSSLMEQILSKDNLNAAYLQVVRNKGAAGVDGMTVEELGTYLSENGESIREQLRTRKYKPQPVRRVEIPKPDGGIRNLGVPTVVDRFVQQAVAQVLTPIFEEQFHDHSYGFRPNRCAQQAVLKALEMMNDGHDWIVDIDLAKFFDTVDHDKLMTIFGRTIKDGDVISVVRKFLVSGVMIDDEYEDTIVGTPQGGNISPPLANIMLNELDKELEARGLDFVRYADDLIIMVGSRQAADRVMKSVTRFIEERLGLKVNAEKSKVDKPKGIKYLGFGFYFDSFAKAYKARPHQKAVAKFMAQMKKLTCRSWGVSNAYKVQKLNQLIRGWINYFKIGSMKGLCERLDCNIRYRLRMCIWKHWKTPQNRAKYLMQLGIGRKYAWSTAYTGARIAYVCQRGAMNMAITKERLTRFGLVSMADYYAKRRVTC

[7] = test system: T7, MG153-57; details: primer extension gel; 3 mM MgCl2, 37 C; protein translated in vitro; protein details: N-terminal Strep; label: 5'-FAM primer; DNA:RNA hybrid
T7 sequence (limits assumed): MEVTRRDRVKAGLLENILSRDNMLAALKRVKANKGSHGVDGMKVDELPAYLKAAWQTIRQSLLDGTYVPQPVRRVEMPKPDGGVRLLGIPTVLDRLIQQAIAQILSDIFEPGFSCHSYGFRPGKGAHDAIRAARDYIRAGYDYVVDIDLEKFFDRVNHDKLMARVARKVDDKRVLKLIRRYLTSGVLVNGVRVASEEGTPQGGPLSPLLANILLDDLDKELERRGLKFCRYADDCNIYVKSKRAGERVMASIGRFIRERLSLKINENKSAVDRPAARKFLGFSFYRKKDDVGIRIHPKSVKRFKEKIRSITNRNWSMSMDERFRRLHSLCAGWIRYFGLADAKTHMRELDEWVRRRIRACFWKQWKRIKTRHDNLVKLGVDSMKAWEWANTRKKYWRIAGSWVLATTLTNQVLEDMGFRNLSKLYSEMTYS

Measured: activity on this sequence

GGCAAACCGCCTCTCCCCGCGCGTTGGCCGATTCATTAATGCAGCTGGCACGACAGGTTTCCCGACTGGAAAGGAGACCCGGGCAGTGAGCGCAACGGGTCTCCAATTTAAGCCAGCCCCGACACCCGCCAACACCCGCTGACGCGCCCTGACGGGCTTGTCTGCTCCCGGCATCCGCTTACAGACAAGCTGTGACCGTCTC / GAGACGGTCACAGCTTGTCTG [202-nt RNA template annealed to DNA primer]
active: all assays above
